Two molecules from KR20150077887A can be followed below.

No constants are given. Whether binding was seen depends on the method and setting. Some results given as binding are weak or reduced against the parent protein; the word gives no strength.

In this assay the target is T1, NRS natively expressed in human cells (HeLa cell lysate) (human) (UniProt O43776).
T1 sequence (looked up): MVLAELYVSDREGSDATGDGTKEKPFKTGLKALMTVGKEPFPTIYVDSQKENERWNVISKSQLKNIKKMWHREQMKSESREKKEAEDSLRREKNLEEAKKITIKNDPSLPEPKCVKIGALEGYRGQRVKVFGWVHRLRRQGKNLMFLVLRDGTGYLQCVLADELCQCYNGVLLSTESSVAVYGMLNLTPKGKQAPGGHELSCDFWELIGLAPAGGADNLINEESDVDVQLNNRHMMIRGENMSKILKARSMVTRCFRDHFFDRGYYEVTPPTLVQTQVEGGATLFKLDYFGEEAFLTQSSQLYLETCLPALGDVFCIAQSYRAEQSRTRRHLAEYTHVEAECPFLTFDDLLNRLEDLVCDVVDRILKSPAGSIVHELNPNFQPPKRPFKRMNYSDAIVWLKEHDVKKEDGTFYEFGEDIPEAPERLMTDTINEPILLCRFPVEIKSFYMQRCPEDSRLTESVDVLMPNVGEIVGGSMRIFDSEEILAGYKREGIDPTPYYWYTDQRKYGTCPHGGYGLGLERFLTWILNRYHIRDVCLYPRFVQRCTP
In words: western blot on HeLa cell lysate with periplasmic scFv (clones from phage panning on NRS), anti-HA-HRP detection. (A western blot detects proteins with antibodies after separation by electrophoresis.)

B1: SEQ ID NO 28 (scFv)
scFv: EVQLLESGGGLVQPGGSLRLSCAASGFTFSNYAMSWVRQAPGKGLEWVSWIYHGGGDTYYADSVKGRFTISRDNSKNTLYLQMNSLRAEDTAVYYCARGAKAPMSFDYWGQGTLVTVSSGGGGSGGGGPGGGGSQSVLTQPPSASGTPGRRVTISCSGSSSNIGNNSVSWYQQLPGTAPKLLIYANSHRPSGVPDRFSGSKSGTSASLAISGLRSEDEADYYCAAWDSSLSAYVFGGGTKLTVL
Consider B1, for which the binding result is given as “binds”.

B2: SEQ ID NO 56 (scFv)
scFv: B1 scFv
Take B2: the binding result is on record as “binds”.
